For one substance, binding results are on record in publication PMC12569825.

Sequences of proteins named here, by UniProt entry; tags and fusion partners are left off.
UniProt Q96PU5: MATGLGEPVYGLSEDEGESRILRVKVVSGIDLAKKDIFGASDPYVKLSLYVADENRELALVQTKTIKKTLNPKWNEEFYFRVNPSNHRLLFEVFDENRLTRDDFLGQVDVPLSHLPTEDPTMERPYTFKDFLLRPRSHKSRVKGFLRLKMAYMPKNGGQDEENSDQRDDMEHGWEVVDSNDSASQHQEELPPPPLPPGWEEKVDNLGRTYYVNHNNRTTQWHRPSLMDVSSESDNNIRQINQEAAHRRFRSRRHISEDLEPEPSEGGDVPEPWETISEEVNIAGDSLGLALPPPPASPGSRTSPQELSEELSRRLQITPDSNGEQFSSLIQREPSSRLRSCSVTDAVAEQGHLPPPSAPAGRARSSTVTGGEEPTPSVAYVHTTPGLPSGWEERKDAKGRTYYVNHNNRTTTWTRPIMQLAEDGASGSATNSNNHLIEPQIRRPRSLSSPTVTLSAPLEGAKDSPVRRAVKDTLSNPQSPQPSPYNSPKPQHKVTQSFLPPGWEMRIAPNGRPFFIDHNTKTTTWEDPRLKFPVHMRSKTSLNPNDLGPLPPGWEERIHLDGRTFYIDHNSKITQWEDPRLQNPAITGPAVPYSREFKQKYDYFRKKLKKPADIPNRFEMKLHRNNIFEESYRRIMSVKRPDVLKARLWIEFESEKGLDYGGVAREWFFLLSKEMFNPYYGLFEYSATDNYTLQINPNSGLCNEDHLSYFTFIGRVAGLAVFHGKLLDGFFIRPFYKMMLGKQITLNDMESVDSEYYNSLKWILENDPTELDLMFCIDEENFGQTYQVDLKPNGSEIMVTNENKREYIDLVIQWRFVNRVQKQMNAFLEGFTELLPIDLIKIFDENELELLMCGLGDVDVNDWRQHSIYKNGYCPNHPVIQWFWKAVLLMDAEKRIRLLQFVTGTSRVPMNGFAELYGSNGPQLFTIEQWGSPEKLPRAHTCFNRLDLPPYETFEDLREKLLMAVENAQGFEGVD
UniProt Q6XZF7: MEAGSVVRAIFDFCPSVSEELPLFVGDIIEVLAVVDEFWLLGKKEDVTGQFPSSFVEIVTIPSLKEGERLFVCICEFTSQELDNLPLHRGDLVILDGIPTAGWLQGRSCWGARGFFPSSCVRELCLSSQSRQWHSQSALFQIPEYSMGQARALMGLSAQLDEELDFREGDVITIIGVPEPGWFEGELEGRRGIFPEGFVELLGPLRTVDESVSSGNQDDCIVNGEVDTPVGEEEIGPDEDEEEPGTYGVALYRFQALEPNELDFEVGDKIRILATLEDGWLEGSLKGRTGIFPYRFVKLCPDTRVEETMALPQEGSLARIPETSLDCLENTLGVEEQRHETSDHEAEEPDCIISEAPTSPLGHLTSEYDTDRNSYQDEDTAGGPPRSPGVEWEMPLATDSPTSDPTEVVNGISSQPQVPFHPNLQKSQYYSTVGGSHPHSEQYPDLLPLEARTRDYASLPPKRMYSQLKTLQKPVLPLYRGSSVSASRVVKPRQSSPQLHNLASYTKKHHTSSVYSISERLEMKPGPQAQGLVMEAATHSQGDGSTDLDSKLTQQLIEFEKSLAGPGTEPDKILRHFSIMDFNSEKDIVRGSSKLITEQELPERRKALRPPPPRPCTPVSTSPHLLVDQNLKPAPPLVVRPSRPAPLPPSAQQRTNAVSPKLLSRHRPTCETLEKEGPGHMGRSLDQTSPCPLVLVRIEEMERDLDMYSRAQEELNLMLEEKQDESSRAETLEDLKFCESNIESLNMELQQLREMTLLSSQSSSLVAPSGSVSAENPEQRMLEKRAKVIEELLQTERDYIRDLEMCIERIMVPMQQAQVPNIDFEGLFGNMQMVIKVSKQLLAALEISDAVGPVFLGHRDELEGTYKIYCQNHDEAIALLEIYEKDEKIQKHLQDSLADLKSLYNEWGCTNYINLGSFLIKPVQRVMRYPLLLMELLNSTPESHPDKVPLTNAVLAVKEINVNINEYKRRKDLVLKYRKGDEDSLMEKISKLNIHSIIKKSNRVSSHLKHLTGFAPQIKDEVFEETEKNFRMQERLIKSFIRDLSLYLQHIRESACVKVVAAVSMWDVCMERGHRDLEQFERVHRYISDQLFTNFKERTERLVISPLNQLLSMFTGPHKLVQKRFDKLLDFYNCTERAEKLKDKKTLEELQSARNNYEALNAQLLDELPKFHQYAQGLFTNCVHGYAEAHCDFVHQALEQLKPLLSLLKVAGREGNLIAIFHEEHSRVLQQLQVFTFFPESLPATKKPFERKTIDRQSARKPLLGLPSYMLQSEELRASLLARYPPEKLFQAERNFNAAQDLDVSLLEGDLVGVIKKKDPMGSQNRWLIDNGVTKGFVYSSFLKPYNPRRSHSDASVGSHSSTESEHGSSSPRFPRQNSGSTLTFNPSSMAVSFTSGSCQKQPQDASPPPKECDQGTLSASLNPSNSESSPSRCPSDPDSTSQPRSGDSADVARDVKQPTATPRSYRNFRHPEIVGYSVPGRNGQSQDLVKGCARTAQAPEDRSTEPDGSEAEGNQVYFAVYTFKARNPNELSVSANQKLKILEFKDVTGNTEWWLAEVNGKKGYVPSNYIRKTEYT

No constants are given. Whether binding was seen depends on the method and setting. Binding seen in cells or lysates may run through a third protein. These calls come from enrichment with a bait or labelling near it, and not all partners need be listed.

The experiment has as its target miniTurbo-tagged Nedd4-2 (BioID bait) (UniProt Q96PU5). As to the kind of experiment: proximity labelling; BioID with miniTurbo-tagged Nedd4-2 (tag at N- or C-terminus) in 293 Flp-In T-REx cells; iso- or hyper-osmotic solutions with 50 μM biotin for 1 h; biotin-streptavidin affinity purification and mass spectrometry.

For the substance “endogenous Dynamin Binding Protein (DNMBP) (from UniProt Q6XZF7 1-1577)”, the binding entry is recorded as “binds”.
